According to the supplement of paper PMC10849652:
The list shows a part of the results.

By UniProt entry, the sequences of proteins in these tests, tags left out. Where a name states a change or a piece, a line headed by the entry shows the natural chain unless it says otherwise.
UniProt Q6ZUT9: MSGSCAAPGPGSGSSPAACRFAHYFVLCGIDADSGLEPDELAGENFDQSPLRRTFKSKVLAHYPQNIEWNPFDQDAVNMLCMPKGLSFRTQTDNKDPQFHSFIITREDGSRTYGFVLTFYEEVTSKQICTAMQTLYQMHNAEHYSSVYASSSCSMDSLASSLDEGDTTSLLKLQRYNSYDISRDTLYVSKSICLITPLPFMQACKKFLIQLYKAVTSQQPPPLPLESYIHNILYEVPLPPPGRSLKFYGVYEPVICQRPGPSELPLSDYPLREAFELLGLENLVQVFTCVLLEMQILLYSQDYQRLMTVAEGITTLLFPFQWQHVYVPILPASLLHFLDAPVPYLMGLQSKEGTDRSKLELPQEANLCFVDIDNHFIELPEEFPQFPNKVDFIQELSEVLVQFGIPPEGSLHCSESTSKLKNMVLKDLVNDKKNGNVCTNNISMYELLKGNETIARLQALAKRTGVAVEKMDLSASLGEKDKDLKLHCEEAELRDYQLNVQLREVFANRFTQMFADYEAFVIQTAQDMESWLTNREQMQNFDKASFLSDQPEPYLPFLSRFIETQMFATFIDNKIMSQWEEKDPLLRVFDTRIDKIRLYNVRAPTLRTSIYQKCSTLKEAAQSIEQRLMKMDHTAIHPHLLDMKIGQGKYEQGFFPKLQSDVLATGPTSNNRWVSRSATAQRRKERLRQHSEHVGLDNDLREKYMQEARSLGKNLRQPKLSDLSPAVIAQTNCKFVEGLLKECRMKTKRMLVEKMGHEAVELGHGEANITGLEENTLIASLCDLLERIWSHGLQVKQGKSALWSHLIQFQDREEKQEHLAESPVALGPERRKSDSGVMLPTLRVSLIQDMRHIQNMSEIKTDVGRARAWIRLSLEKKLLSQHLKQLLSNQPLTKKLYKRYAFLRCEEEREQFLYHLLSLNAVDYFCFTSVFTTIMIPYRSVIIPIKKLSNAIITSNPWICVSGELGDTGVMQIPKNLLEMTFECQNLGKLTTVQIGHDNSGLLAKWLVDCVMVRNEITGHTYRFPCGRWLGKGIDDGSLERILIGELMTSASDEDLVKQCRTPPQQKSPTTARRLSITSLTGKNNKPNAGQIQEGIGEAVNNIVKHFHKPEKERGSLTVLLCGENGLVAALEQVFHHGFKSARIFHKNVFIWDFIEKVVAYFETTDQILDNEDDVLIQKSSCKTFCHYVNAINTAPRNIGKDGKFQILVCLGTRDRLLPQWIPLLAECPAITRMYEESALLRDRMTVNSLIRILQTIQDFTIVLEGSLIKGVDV
UniProt Q9Y4D1, whole entry, looked up: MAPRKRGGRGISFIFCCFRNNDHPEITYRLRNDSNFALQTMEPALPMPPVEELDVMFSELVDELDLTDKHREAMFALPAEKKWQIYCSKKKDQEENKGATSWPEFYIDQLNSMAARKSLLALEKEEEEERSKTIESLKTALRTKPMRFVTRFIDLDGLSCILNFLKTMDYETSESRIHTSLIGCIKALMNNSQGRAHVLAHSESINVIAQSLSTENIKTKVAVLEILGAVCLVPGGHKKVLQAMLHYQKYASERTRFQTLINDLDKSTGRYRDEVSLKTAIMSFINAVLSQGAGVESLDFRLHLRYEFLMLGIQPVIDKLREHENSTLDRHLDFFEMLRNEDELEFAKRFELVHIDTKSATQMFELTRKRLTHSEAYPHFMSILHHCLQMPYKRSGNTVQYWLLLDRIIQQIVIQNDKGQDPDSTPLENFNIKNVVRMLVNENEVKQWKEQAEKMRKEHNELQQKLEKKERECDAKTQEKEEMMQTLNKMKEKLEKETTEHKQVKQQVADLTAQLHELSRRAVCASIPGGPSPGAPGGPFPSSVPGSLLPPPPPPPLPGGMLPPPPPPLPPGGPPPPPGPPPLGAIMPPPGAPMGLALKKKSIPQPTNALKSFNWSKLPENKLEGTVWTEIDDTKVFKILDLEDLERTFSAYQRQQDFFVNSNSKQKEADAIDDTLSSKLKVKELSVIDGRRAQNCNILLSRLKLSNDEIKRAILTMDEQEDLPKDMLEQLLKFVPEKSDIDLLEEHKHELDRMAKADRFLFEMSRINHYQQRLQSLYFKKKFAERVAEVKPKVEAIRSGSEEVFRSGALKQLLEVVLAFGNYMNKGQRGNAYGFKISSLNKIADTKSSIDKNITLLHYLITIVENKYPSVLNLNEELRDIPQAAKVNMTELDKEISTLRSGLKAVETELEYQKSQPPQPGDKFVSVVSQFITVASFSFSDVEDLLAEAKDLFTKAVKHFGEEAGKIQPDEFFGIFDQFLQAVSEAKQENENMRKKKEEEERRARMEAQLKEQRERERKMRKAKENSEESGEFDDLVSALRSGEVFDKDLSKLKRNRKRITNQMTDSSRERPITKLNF
UniProt Q9NUU7: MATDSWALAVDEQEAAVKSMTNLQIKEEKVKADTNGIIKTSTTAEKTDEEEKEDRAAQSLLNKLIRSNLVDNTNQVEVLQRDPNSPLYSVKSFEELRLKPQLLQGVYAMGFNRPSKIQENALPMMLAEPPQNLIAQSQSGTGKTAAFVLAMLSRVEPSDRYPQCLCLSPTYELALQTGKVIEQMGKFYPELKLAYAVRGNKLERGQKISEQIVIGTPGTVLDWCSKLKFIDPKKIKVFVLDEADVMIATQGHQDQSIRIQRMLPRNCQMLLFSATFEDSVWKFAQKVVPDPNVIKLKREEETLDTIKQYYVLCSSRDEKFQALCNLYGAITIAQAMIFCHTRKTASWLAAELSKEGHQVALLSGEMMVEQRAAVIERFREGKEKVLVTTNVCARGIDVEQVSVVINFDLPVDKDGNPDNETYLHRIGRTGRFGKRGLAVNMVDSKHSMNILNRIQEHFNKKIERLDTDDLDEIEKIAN
UniProt Q6ZN54: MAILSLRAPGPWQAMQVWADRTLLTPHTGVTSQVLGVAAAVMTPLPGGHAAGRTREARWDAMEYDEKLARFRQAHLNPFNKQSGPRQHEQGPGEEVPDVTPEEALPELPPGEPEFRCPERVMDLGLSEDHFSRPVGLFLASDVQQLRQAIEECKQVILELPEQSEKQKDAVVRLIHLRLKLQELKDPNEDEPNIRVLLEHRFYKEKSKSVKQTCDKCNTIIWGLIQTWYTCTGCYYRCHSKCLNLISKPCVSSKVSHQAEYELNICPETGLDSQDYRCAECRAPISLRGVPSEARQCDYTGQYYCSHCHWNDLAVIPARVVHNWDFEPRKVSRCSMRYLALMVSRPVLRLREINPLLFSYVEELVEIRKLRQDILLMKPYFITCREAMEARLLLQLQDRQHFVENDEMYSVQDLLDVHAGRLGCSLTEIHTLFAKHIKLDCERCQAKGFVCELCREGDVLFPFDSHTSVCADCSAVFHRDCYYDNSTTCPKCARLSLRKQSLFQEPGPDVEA
UniProt Q5QP82: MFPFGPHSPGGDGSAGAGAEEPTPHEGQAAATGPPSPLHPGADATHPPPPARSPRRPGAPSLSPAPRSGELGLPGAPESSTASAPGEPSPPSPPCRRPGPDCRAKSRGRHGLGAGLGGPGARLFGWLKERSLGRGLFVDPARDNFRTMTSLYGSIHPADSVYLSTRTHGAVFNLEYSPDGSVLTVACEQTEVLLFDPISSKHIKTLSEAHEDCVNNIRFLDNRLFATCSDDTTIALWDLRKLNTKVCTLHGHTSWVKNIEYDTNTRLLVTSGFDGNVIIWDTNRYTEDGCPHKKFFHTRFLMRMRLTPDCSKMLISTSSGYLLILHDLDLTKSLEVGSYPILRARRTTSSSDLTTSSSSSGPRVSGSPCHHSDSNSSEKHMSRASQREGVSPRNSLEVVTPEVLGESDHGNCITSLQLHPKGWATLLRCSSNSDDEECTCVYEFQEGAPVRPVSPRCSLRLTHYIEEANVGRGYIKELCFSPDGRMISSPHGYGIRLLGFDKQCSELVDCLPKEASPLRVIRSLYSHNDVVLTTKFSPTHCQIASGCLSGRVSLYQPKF
UniProt Q9UBU7: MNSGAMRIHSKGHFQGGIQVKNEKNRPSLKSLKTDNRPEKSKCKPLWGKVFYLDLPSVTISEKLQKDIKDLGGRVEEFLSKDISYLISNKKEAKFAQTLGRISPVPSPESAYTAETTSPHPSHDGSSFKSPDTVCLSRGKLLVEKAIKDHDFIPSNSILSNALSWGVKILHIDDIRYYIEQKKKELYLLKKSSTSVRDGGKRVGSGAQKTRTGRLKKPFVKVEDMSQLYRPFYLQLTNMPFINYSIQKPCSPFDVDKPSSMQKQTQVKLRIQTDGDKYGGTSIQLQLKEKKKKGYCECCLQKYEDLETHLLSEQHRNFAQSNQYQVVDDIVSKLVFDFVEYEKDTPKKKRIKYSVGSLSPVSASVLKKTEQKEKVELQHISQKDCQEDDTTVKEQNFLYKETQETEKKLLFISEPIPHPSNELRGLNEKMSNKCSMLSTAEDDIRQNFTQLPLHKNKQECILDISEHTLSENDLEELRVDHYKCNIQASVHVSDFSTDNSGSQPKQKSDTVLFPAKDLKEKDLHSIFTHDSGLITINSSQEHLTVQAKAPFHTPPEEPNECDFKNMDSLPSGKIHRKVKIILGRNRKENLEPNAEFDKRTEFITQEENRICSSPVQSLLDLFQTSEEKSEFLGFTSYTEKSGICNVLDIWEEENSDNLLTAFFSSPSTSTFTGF
UniProt Q7Z4W1: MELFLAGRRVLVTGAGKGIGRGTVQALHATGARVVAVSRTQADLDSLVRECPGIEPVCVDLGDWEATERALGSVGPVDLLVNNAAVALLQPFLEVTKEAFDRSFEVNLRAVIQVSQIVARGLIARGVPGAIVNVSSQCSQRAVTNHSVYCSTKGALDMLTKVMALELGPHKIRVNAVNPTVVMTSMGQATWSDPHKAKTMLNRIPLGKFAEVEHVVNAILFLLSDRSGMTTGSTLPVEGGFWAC
UniProt Q9GZP9: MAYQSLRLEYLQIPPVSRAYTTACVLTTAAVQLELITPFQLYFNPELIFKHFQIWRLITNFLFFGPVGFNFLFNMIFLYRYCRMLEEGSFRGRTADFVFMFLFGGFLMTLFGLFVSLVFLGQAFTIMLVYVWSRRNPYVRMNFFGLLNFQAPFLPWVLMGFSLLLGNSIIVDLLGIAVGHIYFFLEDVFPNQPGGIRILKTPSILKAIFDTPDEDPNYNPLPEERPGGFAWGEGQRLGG
UniProt Q6P3S1: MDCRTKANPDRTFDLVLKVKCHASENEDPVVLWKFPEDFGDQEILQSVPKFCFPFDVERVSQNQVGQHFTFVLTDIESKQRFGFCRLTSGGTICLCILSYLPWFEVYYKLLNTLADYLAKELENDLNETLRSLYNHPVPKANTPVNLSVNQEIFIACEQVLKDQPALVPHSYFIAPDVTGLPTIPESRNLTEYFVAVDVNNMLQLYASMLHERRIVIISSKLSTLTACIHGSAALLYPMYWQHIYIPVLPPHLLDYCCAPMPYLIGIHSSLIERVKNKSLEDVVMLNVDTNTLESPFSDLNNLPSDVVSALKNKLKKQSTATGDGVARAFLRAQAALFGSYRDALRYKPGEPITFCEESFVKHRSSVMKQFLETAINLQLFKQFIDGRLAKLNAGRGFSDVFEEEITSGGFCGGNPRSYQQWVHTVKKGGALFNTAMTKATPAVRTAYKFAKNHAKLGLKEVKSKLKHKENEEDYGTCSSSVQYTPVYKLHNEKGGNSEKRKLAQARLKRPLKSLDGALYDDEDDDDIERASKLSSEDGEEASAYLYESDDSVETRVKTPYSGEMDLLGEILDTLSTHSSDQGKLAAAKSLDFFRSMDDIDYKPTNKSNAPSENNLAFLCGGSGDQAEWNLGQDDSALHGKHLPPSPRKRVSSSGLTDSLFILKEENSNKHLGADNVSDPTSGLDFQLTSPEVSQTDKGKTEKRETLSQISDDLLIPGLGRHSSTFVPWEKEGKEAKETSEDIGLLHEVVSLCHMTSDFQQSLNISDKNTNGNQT
UniProt Q9H9R9: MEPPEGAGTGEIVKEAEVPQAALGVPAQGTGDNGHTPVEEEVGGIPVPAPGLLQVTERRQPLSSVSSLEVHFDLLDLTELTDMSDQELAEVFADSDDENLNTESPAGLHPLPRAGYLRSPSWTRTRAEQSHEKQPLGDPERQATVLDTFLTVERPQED
UniProt Q6ZWL3: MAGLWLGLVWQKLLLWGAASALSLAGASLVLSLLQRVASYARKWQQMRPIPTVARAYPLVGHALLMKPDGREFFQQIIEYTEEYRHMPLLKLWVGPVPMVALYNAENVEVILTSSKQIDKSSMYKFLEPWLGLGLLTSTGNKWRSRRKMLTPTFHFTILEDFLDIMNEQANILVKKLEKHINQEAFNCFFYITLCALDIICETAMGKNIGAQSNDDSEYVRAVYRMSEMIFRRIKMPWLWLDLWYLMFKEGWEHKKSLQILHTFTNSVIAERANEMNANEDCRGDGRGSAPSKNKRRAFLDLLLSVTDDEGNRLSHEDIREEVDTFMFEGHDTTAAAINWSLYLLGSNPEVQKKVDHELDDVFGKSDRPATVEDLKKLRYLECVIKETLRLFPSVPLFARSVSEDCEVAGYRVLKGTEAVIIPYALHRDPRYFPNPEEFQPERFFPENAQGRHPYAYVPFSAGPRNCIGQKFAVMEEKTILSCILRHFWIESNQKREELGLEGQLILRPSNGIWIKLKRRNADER

Assays:
Experiment in all cases: log2 fold change, soluble protein after heating vs DMSO (PISA); higher = thermal stabilisation; K562 lysate, 10 uM; active = over 0.2 and 3.5 SD of the protein, either way, in both replicates (recomputed)
erlotinib = compound: C#Cc1cccc(Nc2ncnc3cc(OCCOC)c(OCCOC)cc23)c1 [erlotinib]
In short: (§1)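 Soluble protein was defined as the supernatant remaining after 21,000xg for 90 min, following pooling of heated aliquots and adjustment to 0.5% NP-40 at 4°C. Before that, crude K562 extract at 1 mg/mL protein in PBS pH 7.4 with 1 mM MgCl2 was treated with 10 μM compound for 30 min and heated for 3 min across 48°C-58°C. Quantification used TMTpro 16plex LC-MS/MS with channel sums equalised, and values are log-two fold changes in thermal stability relative to solvent controls from duplicates.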

[1] = compound: C/C(=N\NC(=O)C1=CC(=CC=C1)S(=O)(=O)N2CCOCC2)/C3=C(C=CC(=C3)Cl)O
In short: as §1

[2] = compound: C1=CC(=CC=C1C2=NC3=C(N2)C=C(C=C3)C(=O)N)OC4=CC=C(C=C4)Cl
In short: as §1

[3] = compound: C1=CC2=C(C=CC(=C2)/C=C\3/C(=O)NC(=NCC4=CC=CS4)S3)N=C1
In short: as §1

[4] = compound: C1=CC2=NC=CN=C2C=C1/C=C/3\C(=O)NC(=O)S3
In short: as §1

[5] = compound: C1=CC=C(C=C1)C2=NC(=C(N2)C3=CC=NC=C3)C4=CC(=C(C=C4)Cl)O
In short: as §1

[6] = compound: C1=CC=C2C(=C1)C3=NNC4=CC=CC(=C43)C2=O
In short: as §1

[7] = compound: C1CCN(C1)C(=O)NC2=CC=CC(=C2)NC3=NC=C(C(=N3)NCCC4=CN=CN4)Br
In short: as §1

[8] = compound: C1CN(CCC1(CC2=CC=C(C=C2)Cl)N)C3=NC=NC4=C3C=CN4
In short: as §1

IRAK-1-4 Inhibitor I = compound: C1COCCN1CCN2C3=CC=CC=C3N=C2NC(=O)C4=CC(=CC=C4)[N+](=O)[O-] [IRAK-1-4 Inhibitor I]
In short: as §1

ibrutinib = compound: C=CC(=O)N1CCC[C@@H](n2nc(-c3ccc(Oc4ccccc4)cc3)c3c(N)ncnc32)C1 [ibrutinib]
In short: as §1

[9] = compound: CC(=O)c1cnc2ccc(-c3cc(Cl)c(O)c(Cl)c3)nc2c1N[C@H]1CC[C@H](CN(C)C)CC1
In short: as §1

ralimetinib = compound: CC(C)(C)Cn1c(N)nc2ccc(-c3[nH]c(C(C)(C)C)nc3-c3ccc(F)cc3)nc21 [ralimetinib]
In short: as §1

[10] = compound: CC(C)(O)CC(=O)NCCn1ccc2ncnc(Nc3ccc(Oc4cccc(C(F)(F)F)c4)c(Cl)c3)c21
In short: as §1

[11] = compound: CC(C)C1=C2N=C(C=C(N2N=C1)NCC3=CC=CC=C3)NCCCCCCN
In short: as §1

[12] = compound: CC1=C(C(CC(=O)N1)C2=CC=C(C=C2)C(F)(F)F)C(=O)NC3=C(C=C4C(=C3)C=NN4)F
In short: as §1

[13] = compound: CC1=C(C2=C(C=C1)C(=O)C3=CC=CC=C3N2CCCN)C
In short: as §1

[14] = compound: CC1=C(C=C(C=C1)NC(=O)C2=CC(=CC=C2)C(C)(C)C#N)NC3=CC4=C(C=C3)N=CN(C4=O)C
In short: as §1

[15] = compound: CC1=C(C=C(C=C1)NC(=O)C2=CC(=CC=C2)N(C)C)NC(=O)C3=CC=C(C=C3)O
In short: as §1

[16] = compound: CC1=CC=C(C=C1)SC2=C3C=C(SC3=CN=C2)C(=O)N
In short: as §1

Measured: log2 fold change

DENND4A isoform 2 (UniProt Q7Z401)
inactive: erlotinib 0.023 | [1] -0.021 | [2] -0.015 | [3] 0.007 | [4] -0.045 | [5] 0.002 | [6] -0.041 | [7] 0.002 | [8] 0.012 | IRAK-1-4 Inhibitor I 0.017 | ibrutinib 0 | [9] -0.089 | ralimetinib 0.018 | [10] -0.028 | [11] 0.017 | [12] 0.006 | [13] 0.026 | [14] 0.029 | [15] 0.023 | [16] -0.009

DDX27 (UniProt Q96GQ7)
inactive: erlotinib -0.034 | [1] -0.017 | [2] -0.024 | [3] 0.003 | [4] -0.004 | [5] -0.009 | [6] -0.049 | [7] 0 | [8] -0.003 | IRAK-1-4 Inhibitor I 0.005 | ibrutinib 0.039 | [9] 0.01 | ralimetinib 0.033 | [10] -0.016 | [11] 0.014 | [12] -0.032 | [13] -0.049 | [14] 0.024 | [15] 0.019 | [16] 0.027

DFFA isoform 2 (UniProt O00273)
inactive: erlotinib 0.097 | [1] 0.061 | [2] -0.06 | [3] -0.197 | [4] -0.204 | [5] 0.094 | [6] 0.058 | IRAK-1-4 Inhibitor I 0.025 | ibrutinib 0.108 | [9] 0.115 | ralimetinib 0.041 | [10] 0.114 | [11] 0.095 | [12] -0.093 | [13] -0.161 | [14] -0.041 | [15] -0.056 | [16] -0.009

DCUN1D1 (UniProt C9JVE2)
inactive: erlotinib 0.097 | [2] -0.046 | [4] 0.017 | [5] 0.077 | [7] -0.007 | [8] 0.031 | IRAK-1-4 Inhibitor I 0.254 | ibrutinib 0.225 | [9] 0.096 | ralimetinib -0.098 | [10] -0.158 | [11] 0.011 | [13] -0.073 | [14] 0.293 | [15] -0.063 | [16] 0.189

DENND5B isoform 2 (UniProt Q6ZUT9)
inactive: erlotinib 0.119 | [2] 0.004 | [4] -0.032 | [5] 0.002 | IRAK-1-4 Inhibitor I 0.09 | ibrutinib -0.127 | ralimetinib -0.016 | [10] -0.107 | [11] 0.063 | [12] -0.068 | [13] -0.046 | [15] 0.019

DAAM1 (UniProt Q9Y4D1)
inactive: erlotinib -0.071 | [1] 0.092 | [2] 0.175 | [3] -0.145 | [4] -0.065 | [6] -0.119 | ibrutinib -0.013 | [9] -0.051 | [11] -0.145 | [13] 0.118 | [14] -0.1 | [16] 0.19

DDX19A (UniProt Q9NUU7)
inactive: erlotinib 0 | [1] -0.016 | [2] 0.022 | [3] 0.006 | [4] -0.011 | [5] -0.008 | [6] -0.016 | [7] -0.056 | [8] 0.011 | IRAK-1-4 Inhibitor I -0.027 | ibrutinib -0.021 | [9] 0.003 | ralimetinib 0.032 | [10] -0.01 | [11] 0.016 | [12] 0.021 | [13] 0.013 | [14] 0.027 | [15] -0.015 | [16] -0.018

DEF8 (UniProt Q6ZN54)
inactive: erlotinib -0.011 | [1] 0.058 | [2] 0.103 | [3] 0.004 | [4] 0.154 | [6] -0.05 | [7] -0.063 | [8] -0.055 | ibrutinib 0.083 | [11] 0 | [13] 0.046 | [14] 0.053

DCAF10 (UniProt Q5QP82)
inactive: erlotinib 0.028 | [1] -0.09 | [2] 0.005 | [3] -0.032 | [4] -0.071 | [5] 0.032 | [6] 0.11 | [7] -0.025 | [8] 0.017 | IRAK-1-4 Inhibitor I -0.074 | ibrutinib 0.016 | ralimetinib 0.016 | [10] 0.025 | [11] -0.023 | [12] -0.031 | [13] 0.052 | [14] -0.024 | [15] 0.01

DALRD3 (UniProt Q5D0E6)
inactive: erlotinib 0.034 | [1] 0.152 | [2] 0.05 | [3] -0.413 | [6] 0.021 | [7] 0.031 | [8] -0.068 | [9] 0.028 | [11] -0.024 | [16] 0.037

DBF4 (UniProt Q9UBU7)
inactive: erlotinib 0.03 | [1] 0.056 | [2] 0.005 | [3] -0.033 | [5] 0.098 | [6] -0.058 | [7] -0.068 | [8] -0.022 | IRAK-1-4 Inhibitor I 0.04 | ibrutinib -0.06 | ralimetinib -0.048 | [10] -0.017 | [11] -0.01 | [12] -0.062 | [13] -0.058 | [14] -0.012 | [15] -0.042
active: [4] -0.342

DCXR (UniProt Q7Z4W1)
inactive: erlotinib -0.022 | [1] 0.039 | [2] 0.01 | [3] -0.004 | [4] 0.001 | [5] -0.021 | [6] 0 | [7] -0.019 | [8] -0.001 | IRAK-1-4 Inhibitor I 0.011 | ibrutinib 0.003 | [9] -0.02 | ralimetinib 0.003 | [10] -0.003 | [11] 0.009 | [12] 0.011 | [13] 0.001 | [14] -0.05 | [15] -0.013 | [16] 0.007

DAXX (UniProt Q9UER7)
inactive: erlotinib 0.032 | [1] -0.065 | [2] 0.086 | [3] 0.012 | [4] -0.027 | [5] 0.027 | [6] -0.001 | [7] -0.018 | [8] 0.002 | IRAK-1-4 Inhibitor I -0.007 | ibrutinib -0.026 | [9] -0.086 | ralimetinib -0.074 | [10] -0.04 | [11] 0.016 | [12] -0.047 | [13] -0.081 | [14] 0.107 | [15] -0.031 | [16] -0.067

DAPK2 isoform 2 (UniProt Q9UIK4)
inactive: erlotinib 0.037 | [1] -0.008 | [2] -0.364 | [3] -0.037 | [5] 0.102 | [6] 0.244 | IRAK-1-4 Inhibitor I 0.034 | [9] 0.339 | ralimetinib -0.135 | [10] -0.287 | [11] -0.056 | [15] -0.005 | [16] -0.098

CYTH1 (UniProt Q15438)
inactive: erlotinib 0.007 | [2] 0.059 | [4] 0.022 | [5] 0.034 | [7] 0.011 | [8] 0.042 | IRAK-1-4 Inhibitor I 0.011 | ibrutinib 0.01 | [9] 0.058 | ralimetinib -0.119 | [10] 0.187 | [11] -0.047 | [12] 0.216 | [14] -0.034 | [15] -0.143 | [16] -0.079

DERL2 (UniProt Q9GZP9)
inactive: erlotinib 0.011 | [1] 0.176 | [2] -0.088 | [3] 0.077 | [4] 0.052 | [5] 0.14 | [6] -0.032 | [7] -0.07 | [8] 0.046 | IRAK-1-4 Inhibitor I 0.052 | ibrutinib 0.108 | [9] -0.009 | ralimetinib -0.018 | [10] -0.114 | [11] -0.036 | [12] -0.073 | [13] -0.096 | [14] -0.036 | [15] 0.023 | [16] -0.126

DENND1B (UniProt Q6P3S1)
inactive: erlotinib -0.08 | [1] 0.153 | [2] -0.13 | [3] 0.04 | [4] 0.19 | [5] 0.019 | [6] 0.007 | IRAK-1-4 Inhibitor I 0.014 | ibrutinib 0.405 | [9] -0.034 | ralimetinib -0.039 | [10] -0.114 | [11] -0.087 | [12] 0.151 | [13] 0.174 | [14] 0.031 | [15] -0.003 | [16] 0.011

DBNDD1 isoform 3 (UniProt Q9H9R9)
inactive: erlotinib 0.118 | [2] 0.117 | [5] 0.005 | [7] 0.063 | [8] 0.157 | IRAK-1-4 Inhibitor I 0.063 | [9] 0.052 | ralimetinib -0.016 | [10] -0.093 | [11] 0.013 | [12] 0.161 | [13] 0.195 | [14] 0.025 | [15] 0.041 | [16] -0.048

CYP4V2 (UniProt Q6ZWL3)
inactive: erlotinib -0.07 | [2] 0.014 | [4] 0.126 | [5] 0.099 | IRAK-1-4 Inhibitor I 0.074 | ibrutinib 0.157 | [9] 0.129 | ralimetinib 0.058 | [10] -0.095 | [11] -0.004 | [13] -0.022 | [14] 0.02 | [15] 0.015 | [16] 0.015
